Test results published in the supplement of paper PMC10727501.
This is one part of the list. This data set is noisy: repeats of one test often differ as much as different tests do.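 Free-swimming zebrafish larvae were scored for O-bend response probability to dark flashes (naive: first five; training: remaining flashes of four 60-flash blocks; test: later 60-flash block) and for turning toward alternating leftward/rightward LED motion (OMR). Six treated larvae were compared with sixty 0.1% DMSO controls; |SSMD|≥2 defined a hit.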

These compounds were tested on Danio rerio larvae (5 dpf, TLF) (assay: OMR-Perf (SSMD vs DMSO vehicle); higher = higher than vehicle (e.g. higher dark-flash O-bend response probability, or better optomotor performance)). Details: 10 µM; pre-incubation: 30-90 min.

| SMILES | OMR-Perf |
| --- | --- |
| CC(=O)Oc1cccc2c1C(=O)c1c(OC(C)=O)cc(C(=O)O)cc1C2=O [Diacerein] | -0.944 |
| C[C@@]12CC[C@H]3c4ccc(O)cc4C[C@@H](CCCCCCCCCS(=O)CCCC(F)(F)C(F)(F)F)[C@H]3[C@@H]1CC[C@@H]2O (stereo not given in full) [Fulvestrant] | -0.0842 |
| CCC(NC(C)C)C(O)c1ccc(O)c(O)c1.CS(=O)(=O)O (stereo not given) [Isoetharine Mesylate] | 0.264 |
| CC(C)(C#N)c1ccc(N2C(=O)OCc3cnc4ccc(-c5cnc6ccccc6c5)cc4c32)cc1 | -0.223 |
| O=C1CCC(N2C(=O)c3ccccc3C2=O)C(=O)N1 (stereo not given) [Thalidomide] | -0.115 |
| CC(C)N(CCCNC(=O)Nc1ccc(C(C)(C)C)cc1)C[C@H]1O[C@@H](n2ccc3c(N)ncnc32)[C@H](O)[C@@H]1O | -0.0426 |
| [O-][n+]1cccc(CO)c1 [Mepiroxol] | 0.138 |
| C[C@H](CS)C(=O)N1CCC[C@@H]1C(=O)O [Captopril] | 0.137 |
| C=CC[C@@H]1/C=C(\C)C[C@H](C)C[C@H](OC)[C@@H]2O[C@@](O)(C(=O)C(=O)N3CCCC[C@H]3C(=O)O[C@H](/C(C)=C/[C@@H]3CC[C@H](O)[C@H](OC)C3)[C@H](C)[C@@H](O)CC1=O)[C@H](C)C[C@@H]2OC [Tacrolimus (FK506)] | 0.44 |
| NC[C@H]1O[C@H](O[C@H]2[C@@H](O)[C@@H](O[C@H]3O[C@H](CO)[C@@H](O)[C@H](N)[C@@H]3O)[C@H](N)C[C@@H]2N)[C@@H](N)C[C@@H]1O [Tobramycin] | -0.203 |
